Reference: PubChem BioAssay AID1487 (National Center for Advancing Translational Sciences (NCATS), 2009)
Where “and” joins values, the source holds several entries; their conditions need not be identical. Equal entries are not always repeated. The list shows a part of the results. Further columns of the screen follow, without active or inactive calls. Most of these compounds were active or inconclusive in the main read-out, so they are no random draw. Potencies come from curve fits of mixed quality, noted in brackets.

Test: qHTS Assay for Modulators of Lamin A Splicing
Settings: HeLa LMNA splicing GFP/RFP minigene ratio, 48 h
How it was run: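 S3 HeLa cells stably expressing lamin A-EGFP splicing minigene plus DsRed2, 600 cells/well, 48 h compound exposure at 37C. Laser-scanning cytometry; analysed as GFP (500-530 nm)/RFP (575-640 nm) total intensity ratio; 0.5% DMSO vehicle.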

[1] = measured here: GFP splicing reporter channel
[2] = measured here: RFP viability control channel

SMILES	AC50 [1]	AC50 [2]
Nc1c(C(=O)NCc2ccc3c(c2)OCO3)c2nc3ccccc3nc2n1CCCN1CCOCC1	20 µM [falling, partial curve]	31.6 µM [falling, partial curve]
O=C(c1ccc(S(=O)(=O)NCC2CCCO2)cc1)N1CCc2ccccc21 (stereo unspecified)	7.94 µM [rising, partial curve]	11.2 µM [rising, partial curve]
CC(=O)N1CCN(c2ccc([N+](=O)[O-])cc2C#N)CC1	0.0316 µM [falling, full curve, poor fit]	20 µM [falling, partial curve, poor fit]
COc1ccc(Cl)cc1NC(=O)C/C(C)=N/NC(=O)Cc1ccccc1		2 µM [falling, partial curve]
C/C=C/c1ccc(OCCOc2cc(C=O)ccc2OC)c(OC)c1	22.4 µM [rising, single point]	28.2 µM [rising, single point]
Oc1ccc(O)cc1	28.2 µM [falling, partial curve, poor fit] and 4.47 µM [falling, full curve, poor fit]	2.82 µM [falling, single point] and 7.94 µM [falling, partial curve]
CC(=O)c1cccc(NS(=O)(=O)c2ccc(N/C=C\C(=O)c3ccc(C)cc3)cc2)c1	5.01 µM [rising, single point]	7.08 µM [rising, partial curve, poor fit]
CCOC(=O)CSc1c(-c2ccc(Cl)cc2)[nH]c2ccccc12	12.6 µM [rising, partial curve]	22.4 µM [rising, single point]
Cc1ccc(-c2n[nH]c(=S)n2C)cc1	8.91 µM [falling, partial curve, poor fit]	12.6 µM [falling, partial curve]
O=C(CN1CCN(c2ccccc2F)CC1)Nc1ccc2c(c1)CCC2		12.6 µM [rising, single point]
CO/N=C(\C(=O)O)c1csc(NN=C(C)C)n1		11.2 µM [falling, partial curve, poor fit]
CCN(CC)S(=O)(=O)c1cccc(C(=O)NC(C(=O)Nc2nnc(C3CC3)s2)C(C)C)c1 (stereo unspecified)		20 µM [rising, partial curve, poor fit]
CCCCn1c(=N)n(CC(O)COc2ccccc2)c2ccccc21 (stereo unspecified)	8.91 µM [rising, partial curve]	7.08 µM [rising, partial curve, poor fit]
Cc1ccc(Cn2cc(S(=O)(=O)c3ccc(C(C)C)cc3)c(=O)c3cc4c(cc32)OCO4)cc1		1.78 µM [rising, full curve, poor fit]
N#CC1=C(N)N(c2ccccc2)C2=C(C(=O)CCC2)C1c1ccccc1 (stereo unspecified)		4.47 µM [rising, partial curve, poor fit]
CCOC(=O)N1CCN(c2ccc(C(=O)c3cccc(F)c3)cc2)CC1		31.6 µM [rising, single point]
Cc1ccc(-c2nnc(N3CCC(C)CC3)c3ccccc23)cc1		14.1 µM [rising, partial curve, poor fit]
COc1cc2nc(N3CCN(C(=O)C4CCCO4)CC3)nc(N)c2cc1OC (stereo unspecified)		0.112 µM [falling, full curve]
COc1ccc(Nc2nc(NCC3CCCO3)nc(N)c2[N+](=O)[O-])cc1 (stereo unspecified)	35.5 µM [falling, single point]	35.5 µM [falling, single point]
CO/N=C/CC(=O)c1cnc(-c2ccc(Cl)cc2)s1	5.01 µM [falling, full curve]	6.31 µM [falling, full curve]
CCN(CCCNC(=O)COc1cc(=O)n(C)c2ccccc12)c1cccc(C)c1	12.6 µM [rising, single point]	12.6 µM [rising, single point]
COc1cc(C=O)ccc1OCCCOc1ccc([N+](=O)[O-])cc1	8.91 µM [rising, partial curve]	14.1 µM [rising, partial curve]
C[C@H]1C[C@H]2[C@@H]3CCC4=CC(=O)C=C[C@]4(C)[C@@]3(Cl)[C@@H](O)C[C@]2(C)[C@@]1(O)C(=O)CO	1 µM [rising, full curve, poor fit]	
COc1ccccc1NS(=O)(=O)c1cc(NC(=O)CNC(=O)c2ccc(C)s2)ccc1Cl		15.8 µM [rising, single point]
COc1ccc(S(=O)(=O)N2c3cc(Cl)ccc3Oc3nc4ccccc4nc32)cc1		1.26 µM [rising, full curve]
Cc1ccc(Cl)cc1N1CCN(C(=O)Cn2ncc3c([nH]c4ccccc43)c2=O)CC1		3.55 µM [falling, single point]

SMILES	AC50 [1]	AC50 [2]
CCCCOC(=O)c1ccc(NS(=O)(=O)c2cc(-c3nnnn3CC)ccc2OC)cc1	12.6 µM [rising, partial curve, poor fit]	15.8 µM [rising, partial curve]
COc1cccc(-c2ccc3ncnc(Nc4ccccc4)c3c2)c1	12.6 µM [falling, partial curve]	15.8 µM [falling, single point]
Cc1ccc2nc(C)c(C(=O)N/N=C/c3cccc([N+](=O)[O-])c3)cc2c1	8.91 µM [rising, partial curve, poor fit]	14.1 µM [rising, partial curve, poor fit]
COCC(=O)Nc1ccc(S(=O)(=O)NCCc2ccccc2)cc1		15.8 µM [rising, single point]
Clc1ccccc1-c1cncnc1NCCN1CCOCC1	22.4 µM [falling, single point]	15.8 µM [falling, single point]
S=c1[nH]nc(CSCc2ccc(Cl)cc2Cl)n1-c1ccccc1		12.6 µM [rising, single point]
O=C1CS(=O)(=O)C2(C(=O)N(Cc3ccc(F)cc3)c3ccccc32)N1c1cccc(C(F)(F)F)c1 (stereo unspecified)		8.91 µM [rising, partial curve]
O=C1C=C(NNC(=O)c2cccnc2)CC(c2ccco2)C1 (stereo unspecified)	1.12 µM [rising, full curve, poor fit]	
CCCC(=O)Nc1nnc(SCc2cc(=O)c3ccc(C)cc3[nH]2)s1		0.0251 µM [falling, full curve, poor fit]
O=[N+]([O-])c1ccc(Oc2ccc(S(=O)(=O)Nc3ccccc3)cc2)cc1	3.55 µM [rising, single point]	20 µM [rising, single point]
COc1cccc(C(=O)NCC(=O)OCc2cc(=O)n3nc(C)sc3n2)c1		0.891 µM [falling, full curve, poor fit]
Cc1ccc(NS(=O)(=O)c2cc(-c3n[nH]c(=O)c4ccccc34)ccc2C)cc1	5.01 µM [rising, partial curve, poor fit]	10 µM [rising, partial curve]
COC(=O)c1cc(N2C(=O)C3C(C2=O)C2(C)C=CC3(C)O2)ccc1Cl (stereo unspecified)	35.5 µM [falling, single point]	
CC1Cc2ccccc2N1C(=S)NC(=O)C1(C)CC1(Cl)Cl (stereo unspecified)	0.0447 µM [rising, full curve]	0.631 µM [rising, full curve]
O=C(NCCCn1ccnc1)C(=O)NCC1OCCCN1S(=O)(=O)c1ccc(F)cc1 (stereo unspecified)	0.0355 µM [falling, full curve]	0.0316 µM [falling, full curve, poor fit]
CC1CCN(S(=O)(=O)c2cccc(C(N)=O)c2)CC1	2.51 µM [falling, partial curve, poor fit]	0.0126 µM [falling, full curve, poor fit]
CSc1nc2ccc(Br)cc2[nH]1	35.5 µM [falling, single point]	
Cc1ccc(C2(CCN)CCOC(C(C)C)C2)cc1 (stereo unspecified)		14.1 µM [rising, partial curve, poor fit]
COc1cccc(N2CCN(C(=O)CSc3ccc(F)cc3)CC2)c1		5.62 µM [falling, single point]
CCOCCCNc1nc2c(C)cccn2c(=O)c1/C=C1\SC(=S)N(C(C)CC)C1=O (stereo unspecified)		5.62 µM [rising, single point]
Cc1ccc(OCC(=O)Nc2ccc(C)c(S(=O)(=O)N3CCCCC3)c2)c([N+](=O)[O-])n1		17.8 µM [rising, single point]
COc1ccc(/C=N/Nc2ccccn2)c(OC)c1OC	0.631 µM [falling, full curve, poor fit]	
Cc1ccsc1/C=C\C1=NCCCN1C	10 µM [falling, single point]	14.1 µM [falling, single point]
COc1cc(/C=N/NC(=O)CCN2CCN(Cc3ccccc3)CC2)cc(OC)c1OC		0.562 µM [rising, partial curve]
O=S(=O)(NCc1cccs1)c1cccc(S(=O)(=O)N2CCCCC2)c1		10 µM [rising, partial curve]
O=C(COc1ccc(Cl)cc1Cl)Nc1ccc2nc3n(c(=O)c2c1)CCCC3	22.4 µM [rising, single point]	35.5 µM [rising, single point]

By substructure, the compounds so far containing an aryl methoxy group.
SMILES	AC50 [1]	AC50 [2]
COc1ccc(Cl)cc1NC(=O)C/C(C)=N/NC(=O)Cc1ccccc1		2 µM [falling, partial curve]
C/C=C/c1ccc(OCCOc2cc(C=O)ccc2OC)c(OC)c1	22.4 µM [rising, single point]	28.2 µM [rising, single point]
COc1cc2nc(N3CCN(C(=O)C4CCCO4)CC3)nc(N)c2cc1OC (stereo unspecified)		0.112 µM [falling, full curve]
COc1ccc(Nc2nc(NCC3CCCO3)nc(N)c2[N+](=O)[O-])cc1 (stereo unspecified)	35.5 µM [falling, single point]	35.5 µM [falling, single point]
COc1cc(C=O)ccc1OCCCOc1ccc([N+](=O)[O-])cc1	8.91 µM [rising, partial curve]	14.1 µM [rising, partial curve]
COc1ccccc1NS(=O)(=O)c1cc(NC(=O)CNC(=O)c2ccc(C)s2)ccc1Cl		15.8 µM [rising, single point]
COc1ccc(S(=O)(=O)N2c3cc(Cl)ccc3Oc3nc4ccccc4nc32)cc1		1.26 µM [rising, full curve]
CCCCOC(=O)c1ccc(NS(=O)(=O)c2cc(-c3nnnn3CC)ccc2OC)cc1	12.6 µM [rising, partial curve, poor fit]	15.8 µM [rising, partial curve]
COc1cccc(-c2ccc3ncnc(Nc4ccccc4)c3c2)c1	12.6 µM [falling, partial curve]	15.8 µM [falling, single point]
COc1cccc(C(=O)NCC(=O)OCc2cc(=O)n3nc(C)sc3n2)c1		0.891 µM [falling, full curve, poor fit]
COc1cccc(N2CCN(C(=O)CSc3ccc(F)cc3)CC2)c1		5.62 µM [falling, single point]
COc1ccc(/C=N/Nc2ccccn2)c(OC)c1OC	0.631 µM [falling, full curve, poor fit]	
COc1cc(/C=N/NC(=O)CCN2CCN(Cc3ccccc3)CC2)cc(OC)c1OC		0.562 µM [rising, partial curve]

Single entries from above:
`COc1cccc(C(=O)NCC(=O)OCc2cc(=O)n3nc(C)sc3n2)c1` | AC50 [2]: 0.891 µM [falling, full curve, poor fit]
`O=C(NCCCn1ccnc1)C(=O)NCC1OCCCN1S(=O)(=O)c1ccc(F)cc1` (stereo unspecified) | AC50 [2]: 0.0316 µM [falling, full curve, poor fit]
